According to article PMC5234816:
These are yes or no findings as the source states them, for the method shown. Binding seen in cells or lysates may run through a third protein. Some entries that bind do so weakly or less than the wild type. Tags and fused reporters may be left off the sequences shown.

Chains of the proteins cited; added tags and fusions are not shown. Residues count along the entry.
UniProt Q16620, residues 32-822: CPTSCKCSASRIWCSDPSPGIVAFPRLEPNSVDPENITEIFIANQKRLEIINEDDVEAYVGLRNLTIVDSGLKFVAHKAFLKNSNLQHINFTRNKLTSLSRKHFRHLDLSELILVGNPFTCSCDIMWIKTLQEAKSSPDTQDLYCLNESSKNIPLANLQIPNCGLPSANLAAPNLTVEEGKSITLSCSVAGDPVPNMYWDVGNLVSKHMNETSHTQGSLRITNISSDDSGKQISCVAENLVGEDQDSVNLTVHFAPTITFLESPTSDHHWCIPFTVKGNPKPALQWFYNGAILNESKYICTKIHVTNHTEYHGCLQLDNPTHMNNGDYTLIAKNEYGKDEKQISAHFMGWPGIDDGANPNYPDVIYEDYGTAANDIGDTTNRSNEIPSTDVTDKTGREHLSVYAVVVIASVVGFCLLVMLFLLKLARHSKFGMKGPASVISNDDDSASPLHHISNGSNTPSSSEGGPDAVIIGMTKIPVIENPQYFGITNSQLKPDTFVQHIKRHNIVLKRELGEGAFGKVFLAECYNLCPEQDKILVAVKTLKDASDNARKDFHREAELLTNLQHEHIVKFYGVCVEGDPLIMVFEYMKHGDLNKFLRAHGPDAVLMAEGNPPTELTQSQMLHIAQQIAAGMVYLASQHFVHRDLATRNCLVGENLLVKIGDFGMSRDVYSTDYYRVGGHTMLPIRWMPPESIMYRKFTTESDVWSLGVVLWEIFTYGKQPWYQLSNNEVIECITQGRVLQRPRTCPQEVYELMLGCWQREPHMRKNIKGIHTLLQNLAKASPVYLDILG

Target: FLAG-tagged TrkB (UniProt Q16620)
Test: co-IP; HEK-293 cells transfected with FLAG-tagged TrkB and HA-tagged SLITRK5 alleles; resting condition

binding	Binder
binds	HA-tagged SLITRK5 G722Δ (rare amino acid deletion from an OCD subject) (receptor, UniProt O94991 41-958) IDYYGEICDNACPCEEKDGILTVSCENRGIISLSEISPPRFPIYHLLLSGNLLNRLYPNEFVNYTGASILHLGSNVIQDIETGAFHGLRGLRRLHLNNNKLELLRDDTFLGLENLEYLQVDYNYISVIEPNAFGKLHLLQVLILNDNLLSSLPNNLFRFVPLTHLDLRGNRLKLLPYVGLLQHMDKVVELQLEENPWNCSCELISLKDWLDSISYSALVGDVVCETPFRLHGRDLDEVSKQELCPRRLISDYEMRPQTPLSTTGYLHTTPASVNSVATSSSAVYKPPLKPPKGTRQPNKPRVRPTSRQPSKDLGYSNYGPSIAYQTKSPVPLECPTACSCNLQISDLGLNVNCQERKIESIAELQPKPYNPKKMYLTENYIAVVRRTDFLEATGLDLLHLGNNRISMIQDRAFGDLTNLRRLYLNGNRIERLSPELFYGLQSLQYLFLQYNLIREIQSGTFDPVPNLQLLFLNNNLLQAMPSGVFSGLTLLRLNLRSNHFTSLPVSGVLDQLKSLIQIDLHDNPWDCTCDIVGMKLWVEQLKVGVLVDEVICKAPKKFAETDMRSIKSELLCPDYSDVVVSTPTPSSIQVPARTSAVTPAVRLNSTGAPASLGAGGGASSVPLSVLILSLLLVFIMSVFVAAGLFVLVMKRRKKNQSDHTSTNNSDVSSFNMQYSVYGGGGTGGHPHAHVHHRGPALPKVKTPAGHVYEYIPHPLGHMCKNPIYRSREGNSVEDYKDLHELKVTYSSNHHLQQQQQPPPPPQQPQQQPPPQLQLQPGEEERRESHHLRSPAYSVSTIEPREDLLSPVQDADRFYRGILEPDKHCSTTPAGNSLPEYPKFPCSPAAYTFSPNYDLRRPHQYLHPGAGDSRLREPVLYSPPSAVFVEPNRNEYLELKAKLNVEPDYLEVLEKQTTFSQF
binds	HA-tagged wild type SLITRK5 (SLIT and NTRK-Like Family, Member 5), ancestral human allele (receptor, UniProt O94991 41-958) IDYYGEICDNACPCEEKDGILTVSCENRGIISLSEISPPRFPIYHLLLSGNLLNRLYPNEFVNYTGASILHLGSNVIQDIETGAFHGLRGLRRLHLNNNKLELLRDDTFLGLENLEYLQVDYNYISVIEPNAFGKLHLLQVLILNDNLLSSLPNNLFRFVPLTHLDLRGNRLKLLPYVGLLQHMDKVVELQLEENPWNCSCELISLKDWLDSISYSALVGDVVCETPFRLHGRDLDEVSKQELCPRRLISDYEMRPQTPLSTTGYLHTTPASVNSVATSSSAVYKPPLKPPKGTRQPNKPRVRPTSRQPSKDLGYSNYGPSIAYQTKSPVPLECPTACSCNLQISDLGLNVNCQERKIESIAELQPKPYNPKKMYLTENYIAVVRRTDFLEATGLDLLHLGNNRISMIQDRAFGDLTNLRRLYLNGNRIERLSPELFYGLQSLQYLFLQYNLIREIQSGTFDPVPNLQLLFLNNNLLQAMPSGVFSGLTLLRLNLRSNHFTSLPVSGVLDQLKSLIQIDLHDNPWDCTCDIVGMKLWVEQLKVGVLVDEVICKAPKKFAETDMRSIKSELLCPDYSDVVVSTPTPSSIQVPARTSAVTPAVRLNSTGAPASLGAGGGASSVPLSVLILSLLLVFIMSVFVAAGLFVLVMKRRKKNQSDHTSTNNSDVSSFNMQYSVYGGGGGTGGHPHAHVHHRGPALPKVKTPAGHVYEYIPHPLGHMCKNPIYRSREGNSVEDYKDLHELKVTYSSNHHLQQQQQPPPPPQQPQQQPPPQLQLQPGEEERRESHHLRSPAYSVSTIEPREDLLSPVQDADRFYRGILEPDKHCSTTPAGNSLPEYPKFPCSPAAYTFSPNYDLRRPHQYLHPGAGDSRLREPVLYSPPSAVFVEPNRNEYLELKAKLNVEPDYLEVLEKQTTFSQF
binds	HA-tagged SLITRK5 E600K (rare non-synonymous mutation from an OCD subject) (receptor, UniProt O94991 41-958) IDYYGEICDNACPCEEKDGILTVSCENRGIISLSEISPPRFPIYHLLLSGNLLNRLYPNEFVNYTGASILHLGSNVIQDIETGAFHGLRGLRRLHLNNNKLELLRDDTFLGLENLEYLQVDYNYISVIEPNAFGKLHLLQVLILNDNLLSSLPNNLFRFVPLTHLDLRGNRLKLLPYVGLLQHMDKVVELQLEENPWNCSCELISLKDWLDSISYSALVGDVVCETPFRLHGRDLDEVSKQELCPRRLISDYEMRPQTPLSTTGYLHTTPASVNSVATSSSAVYKPPLKPPKGTRQPNKPRVRPTSRQPSKDLGYSNYGPSIAYQTKSPVPLECPTACSCNLQISDLGLNVNCQERKIESIAELQPKPYNPKKMYLTENYIAVVRRTDFLEATGLDLLHLGNNRISMIQDRAFGDLTNLRRLYLNGNRIERLSPELFYGLQSLQYLFLQYNLIREIQSGTFDPVPNLQLLFLNNNLLQAMPSGVFSGLTLLRLNLRSNHFTSLPVSGVLDQLKSLIQIDLHDNPWDCTCDIVGMKLWVEQLKVGVLVDEVICKAPKKFAKTDMRSIKSELLCPDYSDVVVSTPTPSSIQVPARTSAVTPAVRLNSTGAPASLGAGGGASSVPLSVLILSLLLVFIMSVFVAAGLFVLVMKRRKKNQSDHTSTNNSDVSSFNMQYSVYGGGGGTGGHPHAHVHHRGPALPKVKTPAGHVYEYIPHPLGHMCKNPIYRSREGNSVEDYKDLHELKVTYSSNHHLQQQQQPPPPPQQPQQQPPPQLQLQPGEEERRESHHLRSPAYSVSTIEPREDLLSPVQDADRFYRGILEPDKHCSTTPAGNSLPEYPKFPCSPAAYTFSPNYDLRRPHQYLHPGAGDSRLREPVLYSPPSAVFVEPNRNEYLELKAKLNVEPDYLEVLEKQTTFSQF
binds	HA-tagged SLITRK5 N99K (rare non-synonymous mutation from an OCD subject) (receptor, UniProt O94991 41-958) IDYYGEICDNACPCEEKDGILTVSCENRGIISLSEISPPRFPIYHLLLSGNLLNRLYPKEFVNYTGASILHLGSNVIQDIETGAFHGLRGLRRLHLNNNKLELLRDDTFLGLENLEYLQVDYNYISVIEPNAFGKLHLLQVLILNDNLLSSLPNNLFRFVPLTHLDLRGNRLKLLPYVGLLQHMDKVVELQLEENPWNCSCELISLKDWLDSISYSALVGDVVCETPFRLHGRDLDEVSKQELCPRRLISDYEMRPQTPLSTTGYLHTTPASVNSVATSSSAVYKPPLKPPKGTRQPNKPRVRPTSRQPSKDLGYSNYGPSIAYQTKSPVPLECPTACSCNLQISDLGLNVNCQERKIESIAELQPKPYNPKKMYLTENYIAVVRRTDFLEATGLDLLHLGNNRISMIQDRAFGDLTNLRRLYLNGNRIERLSPELFYGLQSLQYLFLQYNLIREIQSGTFDPVPNLQLLFLNNNLLQAMPSGVFSGLTLLRLNLRSNHFTSLPVSGVLDQLKSLIQIDLHDNPWDCTCDIVGMKLWVEQLKVGVLVDEVICKAPKKFAETDMRSIKSELLCPDYSDVVVSTPTPSSIQVPARTSAVTPAVRLNSTGAPASLGAGGGASSVPLSVLILSLLLVFIMSVFVAAGLFVLVMKRRKKNQSDHTSTNNSDVSSFNMQYSVYGGGGGTGGHPHAHVHHRGPALPKVKTPAGHVYEYIPHPLGHMCKNPIYRSREGNSVEDYKDLHELKVTYSSNHHLQQQQQPPPPPQQPQQQPPPQLQLQPGEEERRESHHLRSPAYSVSTIEPREDLLSPVQDADRFYRGILEPDKHCSTTPAGNSLPEYPKFPCSPAAYTFSPNYDLRRPHQYLHPGAGDSRLREPVLYSPPSAVFVEPNRNEYLELKAKLNVEPDYLEVLEKQTTFSQF
binds	HA-tagged SLITRK5 Q118H (pseudo-matched control mutation from the 1000 Genomes database) (receptor, UniProt O94991 41-958) IDYYGEICDNACPCEEKDGILTVSCENRGIISLSEISPPRFPIYHLLLSGNLLNRLYPNEFVNYTGASILHLGSNVIHDIETGAFHGLRGLRRLHLNNNKLELLRDDTFLGLENLEYLQVDYNYISVIEPNAFGKLHLLQVLILNDNLLSSLPNNLFRFVPLTHLDLRGNRLKLLPYVGLLQHMDKVVELQLEENPWNCSCELISLKDWLDSISYSALVGDVVCETPFRLHGRDLDEVSKQELCPRRLISDYEMRPQTPLSTTGYLHTTPASVNSVATSSSAVYKPPLKPPKGTRQPNKPRVRPTSRQPSKDLGYSNYGPSIAYQTKSPVPLECPTACSCNLQISDLGLNVNCQERKIESIAELQPKPYNPKKMYLTENYIAVVRRTDFLEATGLDLLHLGNNRISMIQDRAFGDLTNLRRLYLNGNRIERLSPELFYGLQSLQYLFLQYNLIREIQSGTFDPVPNLQLLFLNNNLLQAMPSGVFSGLTLLRLNLRSNHFTSLPVSGVLDQLKSLIQIDLHDNPWDCTCDIVGMKLWVEQLKVGVLVDEVICKAPKKFAETDMRSIKSELLCPDYSDVVVSTPTPSSIQVPARTSAVTPAVRLNSTGAPASLGAGGGASSVPLSVLILSLLLVFIMSVFVAAGLFVLVMKRRKKNQSDHTSTNNSDVSSFNMQYSVYGGGGGTGGHPHAHVHHRGPALPKVKTPAGHVYEYIPHPLGHMCKNPIYRSREGNSVEDYKDLHELKVTYSSNHHLQQQQQPPPPPQQPQQQPPPQLQLQPGEEERRESHHLRSPAYSVSTIEPREDLLSPVQDADRFYRGILEPDKHCSTTPAGNSLPEYPKFPCSPAAYTFSPNYDLRRPHQYLHPGAGDSRLREPVLYSPPSAVFVEPNRNEYLELKAKLNVEPDYLEVLEKQTTFSQF
binds	HA-tagged SLITRK5 P891L (pseudo-matched control mutation from the 1000 Genomes database) (receptor, UniProt O94991 41-958) IDYYGEICDNACPCEEKDGILTVSCENRGIISLSEISPPRFPIYHLLLSGNLLNRLYPNEFVNYTGASILHLGSNVIQDIETGAFHGLRGLRRLHLNNNKLELLRDDTFLGLENLEYLQVDYNYISVIEPNAFGKLHLLQVLILNDNLLSSLPNNLFRFVPLTHLDLRGNRLKLLPYVGLLQHMDKVVELQLEENPWNCSCELISLKDWLDSISYSALVGDVVCETPFRLHGRDLDEVSKQELCPRRLISDYEMRPQTPLSTTGYLHTTPASVNSVATSSSAVYKPPLKPPKGTRQPNKPRVRPTSRQPSKDLGYSNYGPSIAYQTKSPVPLECPTACSCNLQISDLGLNVNCQERKIESIAELQPKPYNPKKMYLTENYIAVVRRTDFLEATGLDLLHLGNNRISMIQDRAFGDLTNLRRLYLNGNRIERLSPELFYGLQSLQYLFLQYNLIREIQSGTFDPVPNLQLLFLNNNLLQAMPSGVFSGLTLLRLNLRSNHFTSLPVSGVLDQLKSLIQIDLHDNPWDCTCDIVGMKLWVEQLKVGVLVDEVICKAPKKFAETDMRSIKSELLCPDYSDVVVSTPTPSSIQVPARTSAVTPAVRLNSTGAPASLGAGGGASSVPLSVLILSLLLVFIMSVFVAAGLFVLVMKRRKKNQSDHTSTNNSDVSSFNMQYSVYGGGGGTGGHPHAHVHHRGPALPKVKTPAGHVYEYIPHPLGHMCKNPIYRSREGNSVEDYKDLHELKVTYSSNHHLQQQQQPPPPPQQPQQQPPPQLQLQPGEEERRESHHLRSPAYSVSTIEPREDLLSPVQDADRFYRGILEPDKHCSTTPAGNSLPEYPKFPCSPAAYTFSLNYDLRRPHQYLHPGAGDSRLREPVLYSPPSAVFVEPNRNEYLELKAKLNVEPDYLEVLEKQTTFSQF
